## Percent effect of library compounds

The filed quantity is “Percent Effect” (%). How 0% and 100% were set is not recorded. Most values in the screen are low, and negative values occur. The compounds are a random part of those screened. A dash means the value is not listed here; it may have been measured.

A: 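Whole-parasite assay of Trypanosoma brucei over 72 hours; the read-out is not stated. Tested at 30 µM. Direction is inferred from retests: higher values go with stronger inhibition. Values scatter widely below zero; nearly all retest evidence comes from the higher of the two concentrations used. Of about 64,000 compounds tested this way, about 940 (1.5%) reached 50% or more in at least one test.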
B: 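Assay of Toxoplasma gondii numbers, read through their beta-galactosidase reporter with a colour substrate. Concentration: 10 µM. The record gives no direction; the compounds picked for IC50 retests had high values, so higher reads as fewer parasites. Size under these conditions: about 67,000 compounds, about 260 of them at 50% or above in at least one test.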

| # | SMILES | A | B |
|---|---|---|---|
| 1 | `Cc1ccc(C)c(OCc2nnc(SCC3CCCN(C)C3)o2)c1` (centres unmarked) | 77.52% | 2.513% |
| 2 | `CCc1ncnc2c1CCN(C(=O)c1cccn1C)CC2` | -18.62% | 9.107% |
| 3 | `O=C(O)C(F)(F)F.O=C(c1cccc(F)c1)N1CCC2(CC1)CN(c1ccccn1)CCO2` | 22.81% | -10.88% |
| 4 | `COc1ccc(-c2cc(N)on2)cc1OC` | -9.497% | -0.1327% |
| 5 | `CC(C)CCN1C(=O)C2(NC(=O)c3ccccc3O2)c2ccccc21` (centres unmarked) | - | -4.17% |
| 6 | `COc1cccc(S(=O)(=O)N2CCn3cnc(COCC4CC4)c3C2)c1` | -30.08% | 7.479% |
| 7 | `Cc1cc(NCC2(O)CCOCC2)c2ccccc2n1` | -12.71% | 8.872% |
| 8 | `CN(Cc1ncnn1C)C(=O)Nc1ccc(OC(F)F)cc1` | -19.43% | - |
| 9 | `CCCc1nnc(SCC(=O)Nc2cc(C(C)(C)C)nn2C)[nH]1` | -38.11% | -3.793% |
| 10 | `Cn1cc(-c2ncc3c(c2C(=O)O)CCN(Cc2ccccn2)C3)cn1.O=C(O)C(F)(F)F.O=C(O)C(F)(F)F` | -28.16% | -47.53% |
| 11 | `Nc1cc(N2CCCC(COc3ccc(F)cc3)C2)ncn1` (centres unmarked) | 18.39% | -9.645% |
| 12 | `Cc1csc(CNc2ccc(-c3nc(C4CC4)no3)cn2)n1` | -0.2343% | 13.3% |
| 13 | `Cc1cc(C(=O)N2CCCC2)ccc1NCC(=O)N1CCCCC1C` (centres unmarked) | - | 4.712% |
| 14 | `CC(C)(C)c1n[nH]cc1CNCC1CCN(C2CC2)C1.Cl` (centres unmarked) | -18.43% | 1.354% |
| 15 | `CSC(C)C(=O)N1CCN(CCO)CC1` (centres unmarked) | -29.47% | -4.93% |
| 16 | `CCc1nc(CN(C(C)=O)C2CCN(CCc3cccs3)C2)no1` (centres unmarked) | -7.949% | 2.67% |
| 17 | `[H][C@]12CN(CC(C)C)C(=O)[C@@]1([H])CN(c1cnccn1)C2` | -79.23% | 14.71% |
| 18 | `O=C(O)C(F)(F)F.O=C(O)C(F)(F)F.[H][C@]12CCN(c3cccc(C)n3)C[C@@]1([H])OCCN(Cc1csc(C)n1)C2` | 19.05% | -2.933% |
| 19 | `CC(C)(C)C(=O)NCCC(=O)NC(C)(C)c1ccc2c(c1)OCO2` | 1.427% | -0.07377% |
| 20 | `[H][C@@]12CC[C@@](O)(c3ccc(C)cn3)[C@]1([H])CN(Cc1ccncc1)C2` | -13.61% | 14.28% |
| 21 | `Cc1nc(N2CCOCC2)nc2c1CCN(C(=O)C1(C#N)CC1)CC2` | -32.4% | -5.272% |
| 22 | `O=C(COC1CCCC1)Nc1ncn(CC(=O)N2CCCCCC2)n1` | - | -14.04% |
| 23 | `CC(C)CC(=O)Nc1ccc(Oc2ccsc2C(=O)O)cc1` | - | 9.271% |
| 24 | `Cc1n[nH]c(C)c1NC(=O)CN(CC(O)c1ccc(F)cc1)C1CC1` (centres unmarked) | -18.1% | 6.165% |
| 25 | `Cc1cnn(CC2CCCN2C(=O)Cc2cccs2)c1` (centres unmarked) | -19.54% | -6.401% |
| 26 | `FC(F)(F)c1cc(N2CCc3ncnc(NC4CC4)c3CC2)ncn1` | -38.06% | 4.274% |
| 27 | `Cc1cc(C)n(CC2CN(c3ccc(C#N)cn3)CCO2)n1` (centres unmarked) | -8.264% | -8.162% |
| 28 | `CC(C)(C)c1nc(CN2CCCC(c3noc(C4CC4)n3)C2)no1` (centres unmarked) | -10.48% | 10.22% |
| 29 | `[H][C@@]12CCN(Cc3ccoc3)C[C@]1([H])O[C@H](C(=O)NCC1CC1)C2` | -4.572% | 14.36% |
| 30 | `CCNC(=O)[C@@H]1C[C@@H](NC(=O)c2cccnc2O)CN1Cc1ccsc1` | 19.41% | 0.9191% |
| 31 | `Cc1ccc(CNC(=O)C2CCNC(=O)C2)c(OCCC(C)C)c1` (centres unmarked) | -47.3% | 23.68% |
| 32 | `CC(C)N1CCC(c2nnc(CN3CCCC3)n2C2CC2)CC1` | 10.02% | -4.099% |
| 33 | `Cc1nc2n(n1)CC(Nc1nc(-c3ccccc3)no1)CC2` (centres unmarked) | -6.767% | 23.75% |
| 34 | `O=C(O)C(F)(F)F.O=C(O)C(F)(F)F.[H][C@]12CCC(=O)N(CCN3CCCC3)[C@@]1([H])CCN2Cc1ccc(C)s1` | 11.06% | 0.6101% |
| 35 | `CN(C)C(=O)C1OC2(CCN(C(=O)N(C)C)CC2)c2ccccc21` (centres unmarked) | 2.17% | -14.48% |
| 36 | `O=C(CN(Cc1cccs1)C1CCS(=O)(=O)C1)NC1CCCCC1` (centres unmarked) | -116.7% | 2.373% |
| 37 | `COc1ccnc(N2CCC3(CC2)[C@H](O)C[C@@H]3OCCN(C)C)n1` | 24.22% | 3.011% |
| 38 | `CSCc1cc(F)ccc1CNCc1ccncc1` | -5.524% | 5.898% |
| 39 | `Cc1nc(C)n(CC2CCCN(Cc3nnc(-c4ccco4)o3)C2)n1` (centres unmarked) | 16.41% | -0.6536% |
| 40 | `COc1c(CNC(C)c2sc(C)nc2C)c(C(C)C)nn1C` (centres unmarked) | 17.79% | -2.326% |
| 41 | `CC(C)NC(=O)CC(C)NC(=O)N(C)Cc1cc(Cl)cn1C` (centres unmarked) | -14.42% | 16.52% |
| 42 | `Cc1cnc(C(=O)N2CCCC(Cn3cc(C4CC4)nn3)C2)cn1` (centres unmarked) | -34.47% | 4.002% |
| 43 | `CC1CN(C(=O)NCCn2ccnc2)CCO1` (centres unmarked) | 2.448% | 1.007% |
| 44 | `O=C(NCc1cnc2n1CCN(c1ncc(F)cn1)CC2)C1CCC1` | -26.11% | -0.2658% |
| 45 | `COc1ccc(C2=CNC(C(F)(F)F)=CC2N)cc1` (centres unmarked) | -6.824% | -10.11% |
| 46 | `CCC1CN(CC(=O)NCc2ccco2)CCO1` (centres unmarked) | -18.52% | - |
| 47 | `O=C1CSC(c2ccc(Cl)cc2Cl)c2c(n(C3CCOCC3)[nH]c2=O)N1` (centres unmarked) | -25.73% | -6.892% |
| 48 | `Cc1nc(Nc2cnccn2)cc(C2CCN(c3ncccn3)C2)n1` (centres unmarked) | 26.81% | 23.54% |
| 49 | `CN(Cc1csc2ccccc12)C(=O)NC1CCS(=O)(=O)C1` (centres unmarked) | -36.37% | -36.7% |
| 50 | `Cc1cccc(CN2Cc3[nH]nc(COCC4CC4)c3C2)n1.O=C(O)C(F)(F)F` | -26.25% | -8.252% |
| 51 | `Cc1cc(CN(C)C(=O)C2CCCN(C(N)=O)C2)no1` (centres unmarked) | -11.9% | -3.386% |
| 52 | `Cc1cc(C(=O)N2CCCC(n3nc(C)cc3C)C2)on1` (centres unmarked) | 9.766% | -0.579% |

The last 4 entries again:

SMILES,A,B
CN(Cc1csc2ccccc12)C(=O)NC1CCS(=O)(=O)C1 (centres unmarked),-36.37%,-36.7%
Cc1cccc(CN2Cc3[nH]nc(COCC4CC4)c3C2)n1.O=C(O)C(F)(F)F,-26.25%,-8.252%
Cc1cc(CN(C)C(=O)C2CCCN(C(N)=O)C2)no1 (centres unmarked),-11.9%,-3.386%
Cc1cc(C(=O)N2CCCC(n3nc(C)cc3C)C2)on1 (centres unmarked),9.766%,-0.579%

Source: ChEMBL document CHEMBL3988442, “University of Dundee, Small-Polar-MMV Screening Library” (2021).